The values below are quoted from earlier work in patent publication US11938138B2, “Methods for improved treatment of cancer” (Washington University, priority 2020, dated 2024).

The series concerns Hematologic and solid malignancies; 17 with NMC. Particulars: toxicity incidence; cited from earlier work.

As to `CCNC(=O)C[C@@H]1N=C(c2ccc(Cl)cc2)c2cc(OC)ccc2-n2c(C)nnc21` [GSK525762], the nausea entry is recorded as “(40%),”, the thrombocytopenia result is reported as “(44%),” and the vomiting result was “(29%)”.
